Values quoted from earlier work in patent US6218375A, “Complex of ras-farnesyltransferase inhibitor and sulfobutylether-7-β-cyclodextrin or 2-hydroxypropyl-β-cyclodextrin and method” (priority 2000, dated 2001).

Conditions: by β-cyclodextrin

CN1[C@@H]2CC[C@H]1C[C@@H](OC(=O)C(CO)c1ccccc1)C2 (stereo partly shown) [atropine]
stabilization: increases stabilization
